No constants are given. Whether binding was seen depends on the method and setting. Binding seen in cells or lysates may run through a third protein. These calls come from enrichment with a bait or labelling near it, and not all partners need be listed.
Columns and labels:
Assay in all cases: affinity purification with mass spectrometry
[1] = target: 3xFlag-tagged SARS-CoV-2 non-structural protein nsp9 (SARS-CoV-2) (UniProt P0DTD1)
[2] = target: 3xFlag-tagged SARS-CoV-2 non-structural protein nsp10 (SARS-CoV-2) (UniProt P0DTD1)
[3] = target: 3xFlag-tagged SARS-CoV-2 accessory protein ORF6 (SARS-CoV-2) (UniProt P0DTC6)

Chains of the proteins cited; added tags and fusions are not shown.
UniProt P0DTC6, whole entry: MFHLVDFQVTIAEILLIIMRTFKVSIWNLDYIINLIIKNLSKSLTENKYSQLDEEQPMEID

Molecule | binding [1] | binding [2] | binding [3]
C1QBP (from UniProt Q07021 74-282) | binds | binds | –
RAE1 (protein, UniProt P78406 1-368) MSLFGTTSGFGTSGTSMFGSATTDNHNPMKDIEVTSSPDDSIGCLSFSPPTLPGNFLIAGSWANDVRCWEVQDSGQTIPKAQQMHTGPVLDVCWSDDGSKVFTASCDKTAKMWDLSSNQAIQIAQHDAPVKTIHWIKAPNYSCVMTGSWDKTLKFWDTRSSNPMMVLQLPERCYCADVIYPMAVVATAERGLIVYQLENQPSEFRRIESPLKHQHRCVAIFKDKQNKPTGFALGSIEGRVAIHYINPPNPAKDNFTFKCHRSNGTNTSAPQDIYAVNGIAFHPVHGTLATVGSDGRFSFWDKDARTKLKTSEQLDQPISACCFNHNGNIFAYASSYDWSKGHEFYNPQKKNYIFLRNAAEELKPRNKK | – | – | binds

Reference: publication doi:10.1101/2020.03.31.019216
